The whole screen tested about 1,400 compounds, of which fewer than 10 were called active. This list was built around the results that the source calls inconclusive (neither active nor inactive); the mix of calls is not that of the screen. Calls follow the shape of the full dose curve. Where the call is inconclusive, the potency comes from a doubtful curve fit.
Assay: Assay for Inhibitors of Influenza NS1 Protein Function: Hit Validation
Conditions: influenza NS1 function cell assay, 15-point titration; series mostly up to 32.9 µM
Summary of the method: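 NS1-expressing yeast, 1:100 in -URA 2% galactose pH 6.0 medium; 23 nl compound/well; OD600 read. Pos ctrl = same strain without NS1. Hit confirmation of primary screen actives.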

**Q.** For `C[C@]12Cc3cn4c(nc3C=C1CCC1C2CC[C@@]2(C)[C@H]1CC[C@@]2(O)C#N)nc1ccccc14` (some centres not stated), which Potency is on record?
**A.** The Potency was inconclusive: 6.3 µM [signal inhibitor, full curve].

**Q.** With `COc1ccc(NC(=S)NCCC(c2ccccc2)c2ccccc2)c(OC)c1` as the compound, how does the Potency read?
**A.** Its Potency is inconclusive: 14.1 µM [signal inhibitor, partial curve, poor fit].

**Q.** For `Cc1cccc(C(=O)Oc2ccccc2/C=N/NC(=O)c2ccc(NC(=O)C(C)(C)C)cc2)c1`, which Potency is on record?
**A.** The Potency was “inactive”.

**Q.** With `CSc1ccc(C(c2c(C)[nH][nH]c2=O)c2c(C)[nH][nH]c2=O)cc1` as the compound, how does the Potency read?
**A.** The Potency was inconclusive: 7.93 µM [signal inhibitor, partial curve, poor fit].

**Q.** For `O=C1NC(=Nc2ccccc2)S/C1=C\C=C\c1ccco1`, which Potency is on record?
**A.** Its Potency is inconclusive: 4.46 µM [signal inhibitor, full curve].

**Q.** For `Cc1nc(C)c(-c2nnc(-c3ccc(C(C)(C)C)cc3)o2)cc1C(=O)NN`, which Potency is on record?
**A.** Its Potency is “inactive”.

**Q.** With `Cc1ccc(NC(=O)NNC(=O)Cn2nc(-c3ccccc3)c(-c3ccccc3)c(C#N)c2=O)cc1` as the compound, how does the Potency read?
**A.** Its Potency is “inactive”.

**Q.** With `C[C@H](NC(=O)c1nc[nH]c1C(=O)N[C@@H](Cc1ccccc1)C(=O)OCc1ccccc1)C(=O)OCc1ccccc1` as the compound, how does the Potency read?
**A.** Its Potency is “inactive”.

**Q.** With `CCOC(=O)c1ccc(C(=O)OCC)c(NC(=S)Nc2ccc([N+](=O)[O-])cc2OC)c1` as the compound, how does the Potency read?
**A.** The Potency was inconclusive: 19.9 µM [signal inhibitor, partial curve].

**Q.** With `O=C(/C=C/c1cccnc1)c1cccc(O)c1` as the compound, how does the Potency read?
**A.** Its Potency is inconclusive: 17.7 µM [signal inhibitor, partial curve].

**Q.** Which Potency does the source give for `Cc1[nH]c2ccccc2c1C(O)CN1CCN(c2cccc(C(F)(F)F)c2)CC1` (configuration not stated) here?
**A.** Its Potency is inconclusive: 14.1 µM [signal inhibitor, partial curve].

**Q.** With `CCc1ccc(NC(=O)CNC(=O)c2cn(-c3ccccc3OC)c(=O)c3ccccc23)cc1` as the compound, how does the Potency read?
**A.** The Potency was “inactive”.

**Q.** For `COc1ccc(N2C(N)=C(C#N)C(c3cccnc3)C3=C2CC(C)(C)CC3=O)cc1` (configuration not stated), which Potency is on record?
**A.** The Potency was “inactive”.

**Q.** For `CC(O)/C=C/c1cccc[n+]1C` (configuration not stated), which Potency is on record?
**A.** Its Potency is “inactive”.

**Q.** With `CCCCc1ccc(NC(=O)CSC2=C(C#N)C(c3ccco3)C3=C(CCCC3=O)N2)cc1` (configuration not stated) as the compound, how does the Potency read?
**A.** The Potency was inconclusive: 14.1 µM [signal inhibitor, partial curve, poor fit].

**Q.** Which Potency does the source give for `Cc1ccc(/C=C2\SC(N3CCN(C(c4ccccc4)c4ccccc4)CC3)=NC2=O)o1` here?
**A.** Its Potency is inconclusive: 22.3 µM [signal inhibitor, single point].

**Q.** For `CCOC(=O)c1c(-c2ccco2)csc1N`, which Potency is on record?
**A.** The Potency was inconclusive: 22.3 µM [signal inhibitor, partial curve, poor fit].

**Q.** Which Potency does the source give for `Cc1ccc(Cn2c(C)nc3c(c2=O)c2nc4ccccc4nc2n3Cc2ccco2)cc1` here?
**A.** The Potency was inconclusive: 8.89 µM [signal inhibitor, single point].

**Q.** With `O=C(Nc1ccccc1Oc1ccccc1)c1ccc(Br)o1` as the compound, how does the Potency read?
**A.** The Potency was inconclusive: 7.93 µM [signal inhibitor, partial curve, poor fit].

**Q.** Which Potency does the source give for `NNC(=O)CNC(c1ccccc1)c1cc(Br)ccc1NC(=O)c1cccc(Cl)c1` (configuration not stated) here?
**A.** The Potency was “inactive”.

**Q.** With `COC(=O)c1ccc(CSc2nnc(NCc3ccccc3)s2)o1` as the compound, how does the Potency read?
**A.** Its Potency is inconclusive: 9.98 µM [signal inhibitor, partial curve].

**Q.** For `Cc1c(N/N=C(\C#N)C(=O)c2ccc(Cl)cc2)c(=O)n(-c2ccccc2)n1C`, which Potency is on record?
**A.** Its Potency is inconclusive: 22.3 µM [signal inhibitor, single point].

**Q.** With `CCn1c2ccccc2c2cc(N=C3SC(CC(=O)Nc4ccccc4OC)C(=O)N3C)ccc21` (configuration not stated) as the compound, how does the Potency read?
**A.** Its Potency is “inactive”.

**Q.** For `O=c1ccn([C@@H]2O[C@H](CO)[C@@H](O)[C@H]2O)c(=O)[nH]1`, which Potency is on record?
**A.** The Potency was inconclusive: 19.9 µM [signal activator, partial curve].

**Q.** For `O=C(Cc1ccc(Cl)cc1)Nc1ccc(N2CCN(C(=O)c3ccco3)CC2)c(Cl)c1`, which Potency is on record?
**A.** The Potency was inconclusive: 8.89 µM [signal inhibitor, single point].

**Q.** Which Potency does the source give for `Cn1c(/N=C/c2c(O)ccc3ccccc23)nc2ccccc21` here?
**A.** Its Potency is inconclusive: 8.89 µM [signal inhibitor, partial curve, poor fit].

**Q.** For `COc1ccccc1Nc1nn2c(=O)c3ccc(C(=O)N4CCC(C)CC4)cc3nc2s1`, which Potency is on record?
**A.** Its Potency is inconclusive: 7.06 µM [signal inhibitor, partial curve, poor fit].

**Q.** For `Cn1c(SCCOc2ccccc2Cl)nnc1-c1cccs1`, which Potency is on record?
**A.** Its Potency is inconclusive: 8.89 µM [signal inhibitor, partial curve].

**Q.** With `C/C(=N/NC(=O)Cc1cc(=O)[nH][nH]1)c1ccc([N+](=O)[O-])cc1` as the compound, how does the Potency read?
**A.** The Potency was inconclusive: 15.8 µM [signal activator, partial curve, poor fit].

**Q.** With `CC(C)C[C@H](NC(=O)c1nc[nH]c1C(=O)NC(c1ccccc1)c1ccccc1)C(=O)OC(C)(C)C` as the compound, how does the Potency read?
**A.** The Potency was “inactive”.

**Q.** With `O=[N+]([O-])c1ccc(N(c2ccccc2)c2ccccc2)cc1` as the compound, how does the Potency read?
**A.** The Potency was inconclusive: 22.3 µM [signal inhibitor, single point].

**Q.** For `O=C(COc1ccc(Cl)cc1Cl)NC(=S)N1CCCc2ccccc21`, which Potency is on record?
**A.** Its Potency is inconclusive: 22.3 µM [signal inhibitor, partial curve, poor fit].

**Q.** For `COc1ccccc1Nc1nc(N)nc(CSC(=S)N2CC(C)CC(C)C2)n1` (configuration not stated), which Potency is on record?
**A.** Its Potency is inconclusive: 17.7 µM [signal inhibitor, partial curve, poor fit].

**Q.** For `COc1cccc(C(C)NC(=O)Nc2cccc(C(F)(F)F)c2)c1` (configuration not stated), which Potency is on record?
**A.** The Potency was inconclusive: 7.93 µM [signal inhibitor, partial curve, poor fit].

**Q.** Which Potency does the source give for `C=CCNC(=O)/C(=C\C=C\c1ccccc1)NC(=O)c1ccc(OCCCC)cc1` here?
**A.** Its Potency is inconclusive: 15.8 µM [signal inhibitor, partial curve].

**Q.** Which Potency does the source give for `CSCC[C@H](NC(=O)[C@H](Cc1ccccc1)n1c(=O)[nH]c2ccccc2c1=O)C(=O)NCC1CCC(C(=O)O)CC1` (some centres not stated) here?
**A.** Its Potency is “inactive”.

**Q.** For `CC(C)(C)c1nnc(N/N=C/c2ccccc2)n(N)c1=O`, which Potency is on record?
**A.** Its Potency is inconclusive: 19.9 µM [signal inhibitor, partial curve, poor fit].

**Q.** Which Potency does the source give for `CCCC(c1nnnn1CCC(C)C)N1CCC(C(N)=O)CC1` (configuration not stated) here?
**A.** The Potency was “inactive”.

**Q.** For `CC(C)(C)C1CCc2onc(C(=O)Nc3ccc(F)cc3F)c2C1` (configuration not stated), which Potency is on record?
**A.** The Potency was inconclusive: 1.58 µM [signal inhibitor, full curve, poor fit].

**Q.** Which Potency does the source give for `COc1ccc(NS(=O)(=O)c2ccc(N3CCCC3)c(NC(=S)Nc3ccc(SC(F)F)cc3)c2)cc1` here?
**A.** Its Potency is inconclusive: 11.2 µM [signal inhibitor, partial curve, poor fit].

**Q.** Which Potency does the source give for `CCCc1[nH]nc2c1C(c1ccc(Br)s1)C(C#N)=C(N)O2` (configuration not stated) here?
**A.** Its Potency is inconclusive: 7.06 µM [signal inhibitor, partial curve].

**Q.** For `Cc1ccc(N2C(=O)CC(N(O)C3CC(=O)N(c4ccc(C)cc4)C3=O)C2=O)cc1` (configuration not stated), which Potency is on record?
**A.** The Potency was inconclusive: 17.7 µM [signal inhibitor, partial curve, poor fit].

**Q.** Which Potency does the source give for `NNC(=O)CNC(c1ccccc1)c1cc(Br)ccc1NC(=O)CCN1CCOCC1` (configuration not stated) here?
**A.** The Potency was inconclusive: 22.3 µM [signal activator, partial curve, poor fit].

**Q.** For `CC(=O)c1ccc(N2CCN(C(=O)c3cc(-c4ccc5c(c4)OCO5)nc4ccccc34)CC2)cc1`, which Potency is on record?
**A.** Its Potency is “inactive”.

**Q.** With `CCOC(=O)N1CCN(S(=O)(=O)c2ccc(C(=O)NNc3nc4c(C)cc(C)cc4s3)cc2)CC1` as the compound, how does the Potency read?
**A.** Its Potency is inconclusive: 3.54 µM [signal inhibitor, full curve, poor fit].

**Q.** With `CCOc1ccc(NC(=O)CCS(=O)(=O)c2ccc3c(c2)CCCN3C(C)=O)cc1` as the compound, how does the Potency read?
**A.** The Potency was “inactive”.

**Q.** With `CC1C/C(=N\NC(=S)NCc2ccccc2)CC(C)(C)C1` (configuration not stated) as the compound, how does the Potency read?
**A.** Its Potency is inconclusive: 19.9 µM [signal inhibitor, partial curve].

Reference: PubChem BioAssay AID492980 (National Center for Advancing Translational Sciences (NCATS), 2010)
